{"source": "the supplement of paper PMC10338343", "note": "± gives the standard deviation. The list shows a part of the results. Many entries were measured with a wide error.", "data": [{"test_system": "EfPiwi piRISC loaded with L1MC piRNA (26 nt)", "experiment": "pre-steady-state target cleavage rate (min^-1); guide: L1MC piRNA 5'p-UAACUAAAUACUAUGCAAGCUGUAGG; MIWI and MILI are mouse PIWI proteins and EfPiwi is from a freshwater sponge; tags in brackets are library labels; higher = faster piRNA-guided slicing of the target", "conditions": "auxiliary factor: none (no Gtsf1)", "how_it_was_run": "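The pre-steady-state cleavage rate was obtained by Cleave-'n-Seq with a burst-and-steady-state fit. A transcribed, DNA-blocked target RNA library (0.1 nM) was mixed with 1 nM active affinity-purified piRISC carrying one synthetic guide, with or without 500 nM GTSF1 partner protein, in HEPES–potassium acetate buffer at 33 °C for 0–8 or 0–960 min. Uncleaved targets were sequenced and normalised to depth and to weakly complementary targets, with three trials pooled and k3 capped at 0.0001 min^-1.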", "values": [{"sequence": "UCCUGGUACCGCUUGCAUAGUAUUUAGUUA", "pre-steady-state target cleavage rate": "0.0017 ± 0.0065"}, {"sequence": "UCCUGGUACAGCUUGAAUAGUAUUUAGUUA", "pre-steady-state target cleavage rate": "0.000248 ± 0.047"}, {"sequence": "UCCUGCUUCAGCUUGCAUAGUAUUUACAAA", "pre-steady-state target cleavage rate": "0.000323 ± 0.02"}, {"sequence": "UCCUGGUACAGGUUGGAUAGUAUUUAGUUA", "pre-steady-state target cleavage rate": "0.000278 ± 0.033"}, {"sequence": "UCCUGCUACAGCUUGCAUAGAAUUUAGAAA", "pre-steady-state target cleavage rate": "0.000391 ± 0.0099"}, {"sequence": "UCCUGGAUGUCGAACCAUAGUAUUUAGUGA", "pre-steady-state target cleavage rate": "0.000121 ± 0.051"}, {"sequence": "UCCUGGUACAGGUUGCAUAGUAUUAAGUUA", "pre-steady-state target cleavage rate": "0.000497 ± 0.021"}]}]}
